PubChem BioAssay AID1259308 | NCATS – 2017
The whole screen tested about 59,000 reagents; this is a part drawn at random. Over the whole deposit, about 1,510 (2.6%) were called active. 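Calls use total luciferase alone and ignore viability, so some active siRNAs may act by altering cell number.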 Entries without a mark were called inactive. The numbers tell different reagents against one gene apart. Not all columns of the deposit are shown.

Assay: 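Candidate targets for better recombinant protein yield in mammalian cells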 (primary screen)
System: human HEK293 embryonic kidney cells stably expressing firefly luciferase (HEK-CMV-Luc2-Hygro)
Knock-down reagent: single siRNA against human genes, 0.8 pmol siRNA per well
Duration: 72 h
Read-out: 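Luciferase light (ONE-Glo) measured on one replicate plate set and viability (CellTiter-Glo) on the other, scaled to a negative control siRNA, with robust z-scores and luciferase per cell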
Scale: total luciferase, z-score: higher = more reporter protein produced
Active means: 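An siRNA counts as active if its total luciferase robust z-score exceeds 3; genes with two or more such siRNAs out of three were retested with fresh siRNAs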
Calls: active = raised luciferase; inactive = no rise

total luciferase, z-score, by gene symbol and reagent
PLA2G3 (phospholipase A2 group III): #1 -0.21; #2 1.38; #3 2
KRT80 (keratin 80): #1 2.61; #2 -1.07; #3 1.71
ZNF664 (zinc finger protein 664): #1 0.18; #2 -0.47; #3 -0.113
DNAJC11 (DnaJ heat shock protein family (Hsp40) member C11): #1 0.615; #2 0.371; #3 -0.217

Part of the list above in another layout:
ZNF664 (zinc finger protein 664) #1 — total luciferase, z-score = 0.18
ZNF664 (zinc finger protein 664) #2 — total luciferase, z-score = -0.47
ZNF664 (zinc finger protein 664) #3 — total luciferase, z-score = -0.113
DNAJC11 (DnaJ heat shock protein family (Hsp40) member C11) #1 — total luciferase, z-score = 0.615

Additional records follow.
total luciferase, z-score, by gene symbol and reagent
SPMIP6 (sperm microtubule inner protein 6): #1 -0.21; #2 1.12; #3 0.922
ZNF569 (zinc finger protein 569): #1 1.93; #2 -0.324; #3 0.821
FLJ38576: #1 1.98; #2 2.11; #3 0.944
LOC645188: #1 -0.831; #2 -1.26; #3 -1.36
